From patent US20220079139A1, “CYCLOSPORIN ANALOG AND USE THEREOF” (Farsight Medical Technology (Shanghai) Co., Ltd., priority 2019, published 2022)
At least one compound was matched to its structure with a doubt left.

test system: Mitochondrial Permeability Transition (MPT); assay: Mitochondrial Permeability Transition: Ca2+-induced swelling of rat liver mitochondria; assay type: biochemical; conditions: swelling induced by 150 micro molar Ca2+, read-out: MPT (EC50, inhibition of mitochondrial swelling)

SMILES	EC50
C/C=C/C[C@@H](C)[C@@H](O)[C@H]1C(=O)N[C@@H](CC)C(=O)N(C)[C@H](OCCN(C)C(C)C)C(=O)N(C)[C@@H](CC(C)C)C(=O)N[C@@H](C(C)C)C(=O)N(C)[C@@H](CC(C)C)C(=O)N[C@@H](C)C(=O)N[C@H](C)C(=O)N(C)[C@@H](CC(C)C)C(=O)N(C)[C@@H](CC(C)C)C(=O)N(C)[C@@H](C(C)C)C(=O)N1C [Entry 2]	7.6 µM
C/C=C/C[C@@H](C)[C@@H](O)[C@H]1C(=O)N[C@@H](CC)C(=O)N(C)[C@H](OCCN2CCCCC2)C(=O)N(C)[C@@H](CC(C)C)C(=O)N[C@@H](C(C)C)C(=O)N(C)[C@@H](CC(C)C)C(=O)N[C@@H](C)C(=O)N[C@H](C)C(=O)N(C)[C@@H](CC(C)C)C(=O)N(C)[C@@H](CC(C)C)C(=O)N(C)[C@@H](C(C)C)C(=O)N1C [Entry 6]	7.5 µM
C/C=C/C[C@@H](C)[C@@H](O)[C@H]1C(=O)N[C@@H](CC)C(=O)N(C)[C@H](OCCCN)C(=O)N(C)[C@@H](CC(C)C)C(=O)N[C@@H](C(C)C)C(=O)N(C)[C@@H](CC(C)C)C(=O)N[C@@H](C)C(=O)N[C@H](C)C(=O)N(C)[C@@H](CC(C)C)C(=O)N(C)[C@@H](CC(C)C)C(=O)N(C)[C@@H](C(C)C)C(=O)N1C [Entry 3]	2.69 µM
C/C=C/C[C@@H](C)[C@@H](O)[C@H]1C(=O)N[C@@H](CC)C(=O)N(C)[C@H](OCCN2CCC2)C(=O)N(C)[C@@H](CC(C)C)C(=O)N[C@@H](C(C)C)C(=O)N(C)[C@@H](CC(C)C)C(=O)N[C@@H](C)C(=O)N[C@H](C)C(=O)N(C)[C@@H](CC(C)C)C(=O)N(C)[C@@H](CC(C)C)C(=O)N(C)[C@@H](C(C)C)C(=O)N1C [Entry 5]	10 µM
C/C=C/C[C@@H](C)[C@@H](O)[C@H]1C(=O)N[C@@H](CC)C(=O)N(C)[C@H](OCCN2CCCC2)C(=O)N(C)[C@@H](CC(C)C)C(=O)N[C@@H](C(C)C)C(=O)N(C)[C@@H](CC(C)C)C(=O)N[C@@H](C)C(=O)N[C@H](C)C(=O)N(C)[C@@H](CC(C)C)C(=O)N(C)[C@@H](CC(C)C)C(=O)N(C)[C@@H](C(C)C)C(=O)N1C [Entry 7]	10 µM
